# Measurements reported in patent US20100331233.
# Protein sequences, listed by entry. Tags and fused reporters are not part of them. Residues count along the entry.
# UniProt P07992, 96-214: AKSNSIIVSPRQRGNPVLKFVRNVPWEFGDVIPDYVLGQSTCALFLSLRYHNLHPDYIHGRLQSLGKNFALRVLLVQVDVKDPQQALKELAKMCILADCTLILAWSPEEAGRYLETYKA
# The exact form of at least one protein or probe is not confirmed.
# Molecular target: ERCC1 central domain (ERCC1 96-214 / 92-214) (Homo sapiens) (UniProt P07992)
# Experiment: FP
# Conditions: CITED Tsodikov et al. 2005; direct titration of ERCC1 at 50 nM DNA, single-site approximation; purified recombinant protein; protein details: N-terminal His6; label: 5' 6-FAM; single-stranded DNA
sequence,measurement,value
CCGGTGGCCAGCGCTCGGCGTTTTTTTTTTTTTTTTTTTT [6FAM-labeled 40mer ssDNA],Kd,1500 nM
